Some of the results follow. These are further read-outs of the screen, such as a control signal, another cell line or another target. No call is given for them. Compounds called inactive in the main read-out are mostly missing here. Words in brackets tell the shape of the fitted curve; partial curves, single points and poor fits give uncertain potencies.
Test: qHTS Assay to Find Inhibitors of Chronic Active B-Cell Receptor Signaling
Details: ABC-DLBCL IkBa-CBG/CBR reporter, luminescence ratio (green luciferase fused to IkBa over red control in TMD8 lymphoma cells), 4 h; measured here: CBR red luminescence, cell number
Summary of the method: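 TMD8 human ABC-DLBCL cells with doxycycline-inducible IκBα–green luciferase fusion and unfused red luciferase, in 0.5% FBS medium; compounds up to 46 uM, 4 h at 37C. Green/red luminescence ratio, filter-overlap corrected, fitted to concentration-response curves.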

SMILES	AC50
CCCOc1ccc2c3c(c(=O)oc2c1)CCCC3	29.1 µM [rising, single point]
CC(C)COc1ccc2[nH]c3c(c2c1)CCCC3=O	4.11 µM [rising, partial curve]
COc1cccc(C(=O)Nc2ccc(F)c(F)c2F)c1	10 µM [falling, partial curve]
COC(=O)CC(c1ccc(F)cc1)n1c(C)ccc1C (stereo not drawn)	12.6 µM [falling, single point]
Fc1ccc(OCc2nnc(SCCN3CCOCC3)o2)cc1	4.11 µM [rising, full curve]
O=C(N/N=C/c1c(O)ccc2ccccc12)c1cccc(C(F)(F)F)c1	23.1 µM [falling, partial curve, poor fit]
Cc1ccccc1C(=O)Nc1ccc(Cl)cn1	7.94 µM [falling, partial curve, poor fit]
O=C(COc1ccccc1Cl)Nc1ccc(N2CCN(C(=O)c3ccccc3)CC2)cc1	14.1 µM [falling, single point]
Cc1ccc(CNC(=O)Cn2c([N+](=O)[O-])cnc2C)cc1	23.1 µM [rising, single point]
Cc1ccc(/C=[N+](/[O-])C2SC(=S)N(C)C2(C)C)cc1 (stereo not drawn)	29.1 µM [rising, single point]
COc1cccc(C(=O)NCC(C)(C)SCc2ccc(F)cc2)c1	35.5 µM [falling, single point]
Cc1ccc(OCCCCc2c(C)n[nH]c2C)cc1	7.94 µM [rising, partial curve]
COC(=O)c1cccc(NC(=O)Nc2ccc(Cl)cc2)c1	35.5 µM [falling, single point]
COc1cccc(NC(=O)CC2(CC(=O)O)CCCC2)c1	20.6 µM [rising, single point]
c1ccc(-c2nc(CSc3n[nH]c(-c4cccs4)n3)cs2)cc1	5.01 µM [falling, partial curve, poor fit]
CC(=O)Nc1cccc(C(=O)N/N=C/c2c[nH]c3ccccc23)c1	22.4 µM [falling, partial curve, poor fit]
CCOc1cc(/C=C2\COc3ccccc3C2=O)ccc1OCC(=O)N(C)C	2.51 µM [falling, full curve]
COc1ccc(CN2CCN(S(=O)(=O)c3ccccc3)CC2)c(OC)c1	3.26 µM [rising, single point]
O=C(Nc1ccc(-c2csc(Nc3ccc(Cl)cc3)n2)cc1)c1ccccc1	10.3 µM [falling, partial curve]
Cc1ccc(CSc2nnc3[nH]c(=O)cc(C)n23)cc1	1.41 µM [rising, full curve, poor fit]
CCc1cc(C(=O)N2CCCC(CCC(=O)N3CCN(c4ccccn4)CC3)C2)no1 (stereo not drawn)	10 µM [rising, partial curve, poor fit]
O=C(Nc1nnc(-c2ccc(F)cc2)s1)c1c(F)cccc1Cl	2.82 µM [falling, full curve, poor fit]

SMILES	AC50
COc1cc2cc(CN(CCO)C(=O)c3cccs3)c(=O)[nH]c2cc1OC	29.1 µM [rising, single point]
C=C(C)C(=O)O[C@H]1C/C(C)=C\C(=O)/C=C(\C)[C@H](O)[C@@H]2OC(=O)C(=C)[C@@H]21	7.08 µM [falling, full curve]
CC(C)(C)c1ccc(COC(=O)Nc2ccc(F)cc2)cc1	29.1 µM [falling, single point]
Oc1c(Br)cc(C=Nc2ccc3nc(-c4ccccc4)[nH]c3c2)c(O)c1Br	22.4 µM [falling, partial curve, poor fit]
Cc1ccc(C(=O)NC2(O)C(=O)c3ccccc3C2=O)cc1C	25.1 µM [rising, single point]
Nc1nnnn1/N=C/c1ccccn1	0.461 µM [falling, full curve, poor fit]
Cn1nc(C(=O)Nc2ccc(-n3cnnn3)cc2)c2ccccc2c1=O	5.8 µM [rising, partial curve, poor fit]
Cc1ccc(CNC(=O)C2CCCN(Cc3cnn(-c4ccccc4)c3-n3cccc3)C2)cc1 (stereo not drawn)	3.98 µM [rising, partial curve, poor fit]
CC(=O)c1ccc(OCCCC(=O)NNC(=O)c2ccccn2)cc1	25.9 µM [rising, single point]
O=C(Nc1cccc(-c2cn3c(n2)SCC3)c1)c1ccc2c(c1)OCO2	10 µM [falling, partial curve]
Nc1cc(=O)[nH]c(SCCSc2ccccc2F)n1	5.62 µM [rising, single point]
C/C(CC(=O)Nc1ccc(N(C)C)cc1)=N\NC(=O)c1ccccc1F	15.8 µM [falling, partial curve, poor fit]
O=C(Cn1ncn2c(cc3ccccc32)c1=O)NCCCc1ccccc1	1 µM [rising, full curve, poor fit]
O=C(CSc1nc2ccccc2o1)NCC1CCCO1 (stereo not drawn)	3.26 µM [rising, full curve, poor fit]
CC1CCN(C2=NC(=O)/C(=C/c3cn[nH]c3-c3ccccc3)S2)CC1	2.91 µM [falling, full curve]
Cc1ccc(NC(=O)C(=O)NN=C2CCCC2)cc1C	11.2 µM [falling, single point]
COc1ccc2c(c1)CC/C2=N\OC(=O)c1ccccc1OC	35.5 µM [falling, single point]
Cc1ccccc1OCC(=O)Nc1ccc(Cc2ccncc2)cc1	20.6 µM [falling, partial curve]
O=C(O)COc1ccccc1/C=C1\SC(=S)N(c2cccnc2)C1=O	3.98 µM [falling, full curve, poor fit]
O=C(NNC(=O)c1cc2ccccc2o1)c1ccc(F)cc1	18.4 µM [falling, partial curve]
O=C(/C=C/Nc1ccccc1C(F)(F)F)c1ccco1	4.47 µM [rising, single point]

No new results follow: entries from further up.
SMILES	AC50
COC(=O)CC(c1ccc(F)cc1)n1c(C)ccc1C (stereo not drawn)	12.6 µM [falling, single point]
Fc1ccc(OCc2nnc(SCCN3CCOCC3)o2)cc1	4.11 µM [rising, full curve]
